According to patent US11155517B2, “4-substituted phenylamine derivatives and their use to protect crops by fighting undesired phytopathogenic micoorganisms” (PI INDUSTRIES LTD., priority 2016, dated 2021):
Some entries share one result that the patent states for a list of compounds. At least one structure is not confirmed: it was looked up by name or label, or the drawing left a doubt.

Key:
Colletotrichum capsici = Colletotrichum capsici (anthracnose) in vitro test, radial growth on Potato Dextrose Agar; type: cell-based; conditions: 300 ppm; seven days, 25° C.
Alternaria solani [1] = assay: Alternaria solani (early blight of tomato/potato) in vitro test, radial growth on Potato Dextrose Agar; type: cell-based; conditions: 300 ppm; seven days, 25° C.
Septoria lycopersici = Septoria lycopersici (leaf spot of tomato) in vitro test, radial growth on Potato Dextrose Agar; type: cell-based; conditions: 300 ppm; seven days, 25° C.
Botrytis cinerea = Botrytis cinerea (gray mold) in vitro test, radial growth on Potato Dextrose Agar; type: cell-based; conditions: 300 ppm; seven days, 22° C.
Rhizoctonia solani = Rhizoctonia solani (rice sheath blight/potato black scurf) in vitro test, radial growth on Potato Dextrose Agar; type: cell-based; conditions: 300 ppm; seven days, 25° C.
Botrytis cinera = assay: Greenhouse Botrytis cinera test in tomato, preventive; type: in vivo; conditions: 500 ppm; plants sprayed one day before inoculation
Alternaria solani [2] = assay: Greenhouse Alternaria solani test in tomato, preventive; type: in vivo; conditions: 500 ppm; tomato plants sprayed one day before inoculation
Procedure: Compounds were dissolved in 2% DMSO/Acetone & then mixed with water to calibrated spray volume of 50 ml. This 50 ml spray solution was poured into the spray bottles for further applications. To test the preventive activity of compounds, healthy young Tomato plants raised in the greenhouse were sprayed with active compound preparation at the stated application rates inside the spray cabinets using hallowcone nozzles. One day after treatment, the plants were inoculated with spore suspension (2% Malt) containing 0.24×10^6 Alternaria solani inoculum. The inoculated plants were then kept in greenhouse chamber at 22-24° C. temperature and 90-95% relative humidity for disease expression. […] Efficacy (% control) of the compounds was calculated by comparing the disease rating in the treatment with untreated control. The sprayed plants were also assessed for compound's phytotoxic effects by recording symptoms like necrosis, chlorosis and stunting.

Row | SMILES | % control compared to the untreated check (radial growth) (Colletotrichum capsici) | % control compared to the untreated check (radial growth) (Alternaria solani [1]) | % control compared to the untreated check (radial growth) (Septoria lycopersici) | % control compared to the untreated check (radial growth) (Botrytis cinerea) | % control compared to the untreated check (radial growth) (Rhizoctonia solani) | Efficacy (% control), disease severity vs untreated check (Botrytis cinera) | Efficacy (% control), disease severity vs untreated check (Alternaria solani [2])
1 | CCN(C)C=Nc1cc(C)c(Cc2ccc(C)cc2)cc1F [Compound 211, N-ethyl-N-(2-fluoro-5-methyl-4-(4-methylbenzyl)phenyl)-N-methylformimidamide] | more than 80% | more than 75% | more than 70% | more than 80% | more than 80% |  | 
2 | CCN(C)C=Nc1cc(Cl)c(C(C#N)c2cc(F)ccc2C)cc1C (centres unmarked) [Compound 236, N′-(5-chloro-4-(cyano(5-fluoro-2-methylphenyl)methyl)-2-methylphenyl)-N-ethyl-N-methyl] |  |  |  | more than 80% |  |  | 
3 | CCN(C)C=Nc1cc(C(F)(F)F)c(Cc2ccc(C)cc2)cc1C1CC1 [Compound 264, N-(2-cyclopropyl-4-(4-methylbenzyl)-5-(trifluoromethyl)phenyl)-N-ethyl-N-methylformimidamide] |  | more than 75% |  | more than 80% | more than 80% |  | 
4 | CCN(C)C=Nc1cc(C)c(Cc2ccc([S+](C)[O-])cc2)cc1C (centres unmarked) [Compound 19, N-(2,5-dimethyl-4-(4-(methylsulfinyl)benzyl)phenyl)-N-ethyl-N-methylformimidamide] |  | more than 75% |  |  |  | 70-100% | 
5 | Cc1cc(N=CN(C)CC2CC2)c(C)cc1Cc1ccccc1F [Compound 87, N-(cyclopropylmethyl)-N-(4-(2-fluorobenzyl)-2,5-dimethylphenyl)-N-methylformimidamide] | more than 80% | more than 75% |  | more than 80% | more than 80% |  | 
6 | CCN(C)C=Nc1cc(C)c(Cc2cccc(C)c2C)cc1Cl [Compound 170, N-(2-chloro-4-(2,3-dimethylbenzyl)-5-methylphenyl)-N-ethyl-N-methylformimidamide] | more than 80% | more than 75% | more than 70% | more than 80% | more than 80% | 70-100% | 70-100%
7 | CCN(C)C=Nc1cc(C)c(C(C#N)c2cccc(C(F)(F)F)c2)cc1Cl.Cl (centres unmarked) [Compound 272, N′-(2-chloro-4-(cyano(3-(trifluoromethyl)phenyl)methyl)-5-methylphenyl)-N-ethyl-N-methylformimidamide hydrochloride] |  |  |  | more than 80% |  |  | 
